Protein sequences, listed by entry. Tags and fused reporters are not part of them. Lines headed by an entry give the natural chain unless they say otherwise; changes in a name come on top.
UniProt P22629: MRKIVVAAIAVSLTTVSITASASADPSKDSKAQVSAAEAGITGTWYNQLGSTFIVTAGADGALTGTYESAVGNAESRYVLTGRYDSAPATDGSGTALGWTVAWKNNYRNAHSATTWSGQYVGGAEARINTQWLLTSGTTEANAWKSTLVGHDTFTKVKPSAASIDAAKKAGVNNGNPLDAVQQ

In publication PMC6523889:

What was measured:
[1] = target: streptavidin coated on 20 µm polystyrene microbeads (UniProt P22629); experiment: bead binding (fluorescence imaging after washing); conditions: Spinach fluorescence read-out; commercial protein; protein details: immobilised on beads
streptavidin = streptavidin (UniProt P22629); experiment: EMSA (native 2% agarose); conditions: 100 and 200 nM streptavidin, 1x TBE + 2 mM MgCl2; Streptavidin EMSA: native 2% agarose gel in 1x TBE + 2 mM MgCl2; other binding conditions; commercial protein

“GGGAGAUACCUGGGAAUGUGCUCUUCGGAGCAUAUUCGGCCUGCUUCGGCAGGCGCUCGCUUCGGCGAGCGCAGGGUGAAGCCUCCACGCCCUGCCCGGCAGCCUCGACGCGACCGAAAUGGUGAAGGACGGGUCCAGUGCUUCGGCACUGUUGAGUAGAGUGUGAGCUCCGUAACUGGUCGCGUCGAGGAACUACUGUCGCCAGGUGUCUCCCGCAGGGUGCGCCGGCAGAUGCGGCCGCCGACCAGAAUCAUGCAAGUGCGUAAGAUAGUCGCGGGUCGGCGGCCGCAUAACUACUGUCGGACCUGAAGGAGGCACGGGUCGACGGUACCCUUCGGGGUAUCGUCGCGGAGCUUCGGCUCCGGACCGCUUCGGCGGUCCGCACUCUGC”: binds [1]; binds (streptavidin).
